The values below come from paper PMC11768481, “Repurposing the Antidiabetic Drugs Glyburide, Gliquidone, and Glipizide in Combination with Benznidazole for Trypanosoma cruzi Infection” (Pharmaceuticals, 2024).

The subject of this test is T. cruzi Querétaro strain epimastigotes. As to the kind of experiment: Thiol metabolites (Cys, GSH, T(SH)2) in epimastigotes by HPLC. In kind it is cell-based, Trypanosoma cruzi. The following applies: 1 µM drug alone, 24 h. The procedure: Since thiol metabolite determination requires high amounts of biological material, the thiol determination content was performed in epimastigotes of the Queretaro strain. A 0.2 L culture of LIT medium was inoculated with epimastigotes at a density of 0.7 × 10^6 parasites/mL. The culture was incubated for 72 h at 28 °C, reaching, at the exponential growth phase, a concentration of 3 × 10^6 parasites/mL. The culture was separated into 8 aliquots of 25 mL, and 1 µM BNZ was added alone or in combination with 1 µM of the antidiabetic drugs. The cultures were incubated for 24 h at 28 °C. Subsequently, 1 mL of each sample was separated for protein determination, and the rest was used for thiol determination. Both samples were centrifuged at 20,817× g for 10 min; the pellets were washed twice with PBS. The pellets for protein were resuspended in 100 µL of Lowry’s solution A (2% Na2CO3, 0.4% NaOH, 0.16% Na-K tartrate, 1% SDS) and stored at −70 °C until protein determination using the Lowry method. The parasite pellets for thiol metabolite determination were immediately lysed by incubation in liquid nitrogen and stored at −70 °C.
Thiol determination was performed as described before. […] The thiol metabolites were post-column derivatized with 0.1 mM di-thio-bis nitrobenzoic acid (DTNB), and the absorbance was detected at 412 nm with a UV-Vis detector coupled to the HPLC apparatus.

In the case of `Cc1cnc(C(=O)NCCc2ccc(S(=O)(=O)NC(=O)NC3CCCCC3)cc2)cn1` [GPZ, glipizide], the GSH level result is listed as “decreased” and the “decrease in GSH” value was about 50%.
